Laboratory results reported in article PMC7819943, “Rice protein-binding microarrays: a tool to detect cis-acting elements near promoter regions in rice”.
The list shows a part of the results.

The sequences below were run against T1, OsSMF1 (Oryza sativa, UniProt Q6ZLB0 1-436) (assay: protein-binding microarray (RPBM); PBS, 2% BSA, 51.3 ng/ul salmon testes DNA, 50 uM zinc acetate, 200 nM TF, 25 C, 1 h; high values mean tight binding). Conditions: protein: recombinant; tags: N-terminal polyhistidine and DsRed monomer fusion (pET32a); chain copies: 2; label: CyDye5-dUTP incorporated in the synthesized complementary strand; 3' TTTTT single-stranded linker to array surface; dsDNA, one strand shown.
T1 sequence: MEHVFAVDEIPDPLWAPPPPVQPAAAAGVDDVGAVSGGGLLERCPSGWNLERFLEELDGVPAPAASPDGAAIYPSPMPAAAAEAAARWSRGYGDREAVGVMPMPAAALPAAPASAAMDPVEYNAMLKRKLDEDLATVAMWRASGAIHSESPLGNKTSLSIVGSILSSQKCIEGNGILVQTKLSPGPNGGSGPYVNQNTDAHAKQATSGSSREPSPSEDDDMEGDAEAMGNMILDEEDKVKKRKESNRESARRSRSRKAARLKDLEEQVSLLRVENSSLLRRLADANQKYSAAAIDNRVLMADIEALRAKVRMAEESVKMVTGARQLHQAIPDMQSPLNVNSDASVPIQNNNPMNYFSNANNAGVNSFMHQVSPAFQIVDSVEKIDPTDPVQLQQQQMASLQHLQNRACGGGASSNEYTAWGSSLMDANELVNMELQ
Method in brief: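 Binding signal is defined as the fluorescence intensity of each feature in arbitrary units, read on an Axon 4000B scanner. Transcription factors with N-terminal polyhistidine and DsRed fusions came from E. coli BL21-CodonPlus and were purified on Ni–NTA. They were incubated at 200 nM for 1 h at 25 °C on a custom Agilent array that had been made double-stranded with Cy5-dUTP, with 50 µM zinc acetate present, and the array was washed.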

Sequence | binding signal
GCCAACAAGGAAGCGATGGAGACACGGCAACCCAGGAGCCCGGAGTCACCTAGTGCAG | 3570 fluorescence intensity (a.u.)
GGCCGCACCACCATTCCACCCGTCCACCTCGTTGCCTCCGCGGAGTCACCTAGTGCAG | 3140 fluorescence intensity (a.u.)
AGTCACTCAAAGAATGCCAAGGAGGAAACTGAGAAAATGTCGGAGTCACCTAGTGCAG | 23700 fluorescence intensity (a.u.)
CCCATAGGCTGGACTCTCTCTCTTTCTCCTACTCCTCCTGCGGAGTCACCTAGTGCAG | 3200 fluorescence intensity (a.u.)
TCACTTCACAGATTCACACACACACACACACACACTCTCTCGGAGTCACCTAGTGCAG | 3410 fluorescence intensity (a.u.)
CTTTAGGTGTTGCGGTCATACTTGTCAACTTGTCACAAAACGGAGTCACCTAGTGCAG | 3560 fluorescence intensity (a.u.)
GCCGCGACGTGACGTGACGTCACGCATTTGTCACTTTCTCCGGAGTCACCTAGTGCAG | 9380 fluorescence intensity (a.u.)
CCATTGTGCCCCGCCCACTGACTCACTGGCCCCACCCACACGGAGTCACCTAGTGCAG | 5400 fluorescence intensity (a.u.)
GCTTCCTGATAGAAATCGCAGATGACACTGTGCCCAAACGCGGAGTCACCTAGTGCAG | 4010 fluorescence intensity (a.u.)
TACATATACAAATCCTAGAACTTGTCATAGTGTGTTATCTCGGAGTCACCTAGTGCAG | 15900 fluorescence intensity (a.u.)
TCAATAACCGCGATAAAAGCTAGGTAGCTGACGTGGCACACGGAGTCACCTAGTGCAG | 22300 fluorescence intensity (a.u.)
TTAGTATGTGATTAATTTAGTATTAATTATTTAACTATAACGGAGTCACCTAGTGCAG | 31900 fluorescence intensity (a.u.)
TTGCTTTTGAATAAGTGATTCTCATGATATGACGTGTTTGCGGAGTCACCTAGTGCAG | 12100 fluorescence intensity (a.u.)
AATCCTTAATGCGCCTGGAATTGTTGCACTCAAGTAAAGCCGGAGTCACCTAGTGCAG | 12300 fluorescence intensity (a.u.)
CAAACCTGACCCTAGTTACCTATTTCTGACGCACATGATTCGGAGTCACCTAGTGCAG | 3290 fluorescence intensity (a.u.)
GATCGTAGGATGTGGTGTCATGTATAGTAGCCAACCCGGCCGGAGTCACCTAGTGCAG | 3530 fluorescence intensity (a.u.)
GAGAATAGTAGCGCCACGCCAACCGCCAAGCCTATGCTTTCGGAGTCACCTAGTGCAG | 5560 fluorescence intensity (a.u.)
CACCCAAGAACCGGTGGTATTCTTTGGACACGAGAACTTTCGGAGTCACCTAGTGCAG | 39100 fluorescence intensity (a.u.)
AAATTGAGTTGAAAATTTTCAAATCTCGACTTGAAAGTTTCGGAGTCACCTAGTGCAG | 21800 fluorescence intensity (a.u.)
CAAACTGTAGAAATATCAAGCACGTGTTACATAATCCCTGCGGAGTCACCTAGTGCAG | 4550 fluorescence intensity (a.u.)
GTACGCACACCAGGCCACCACCAAGAAACGATGGAGAAGGCGGAGTCACCTAGTGCAG | 3380 fluorescence intensity (a.u.)

Reprinted at random: two records from the list.
Sequence | binding signal
CAAACCTGACCCTAGTTACCTATTTCTGACGCACATGATTCGGAGTCACCTAGTGCAG | 3290 fluorescence intensity (a.u.)
GATCGTAGGATGTGGTGTCATGTATAGTAGCCAACCCGGCCGGAGTCACCTAGTGCAG | 3530 fluorescence intensity (a.u.)

Continued.

Sequence | binding signal
TTTGATGACAATGTGATGAGATGTCTCCAAAGGAAGCCTACGGAGTCACCTAGTGCAG | 10400 fluorescence intensity (a.u.)
TGGCCAGGTCTAACGCTGACGTATAACGAATTGATCGATCCGGAGTCACCTAGTGCAG | 5080 fluorescence intensity (a.u.)
TTTAACCGGTCAACCGTCATCTTTCTCCTTGTGATCCCGTCGGAGTCACCTAGTGCAG | 4460 fluorescence intensity (a.u.)
ATTACTACCCACATATTGAATATCCACGCGTGCAGCAAGACGGAGTCACCTAGTGCAG | 3430 fluorescence intensity (a.u.)
GATTTCTTAACTATTTGCCACTTTTGTCTACGTGGCGTGCCGGAGTCACCTAGTGCAG | 17600 fluorescence intensity (a.u.)
AATATCGTTAAAGGTATATGTGTGTAGGCTTAAAAGGACGCGGAGTCACCTAGTGCAG | 27100 fluorescence intensity (a.u.)
AATCTGCATGTCTGGTAGGTCGTCACCGTCATCAGAAATCCGGAGTCACCTAGTGCAG | 5690 fluorescence intensity (a.u.)
ACCACATTCCACGTCACTACCACTCCACTCCACTCCACCACGGAGTCACCTAGTGCAG | 32300 fluorescence intensity (a.u.)
TTAATTAATCGATGAGAATCAATTTCATAATCATGGAGGTCGGAGTCACCTAGTGCAG | 3530 fluorescence intensity (a.u.)
ATTCCGATTTGATTGCAGAACTGATGTCAGATTCCGAATCCGGAGTCACCTAGTGCAG | 5520 fluorescence intensity (a.u.)
ATCTGTTACTTGCTCGAACCTTCGTGTACCAAGACTTGAGCGGAGTCACCTAGTGCAG | 35500 fluorescence intensity (a.u.)
GTGATCGCTGGTTTATCTAGCTGTGACTAGTCACGTCCATCGGAGTCACCTAGTGCAG | 5550 fluorescence intensity (a.u.)
ATGTTTCAGACACGATAGCAATATGTTTCAACACATGTTTCGGAGTCACCTAGTGCAG | 4500 fluorescence intensity (a.u.)
TACTCATGGATGCCACCGTGTCTGCACGAATTTCCCTACCCGGAGTCACCTAGTGCAG | 4020 fluorescence intensity (a.u.)
CCTCCTTTTCTTCTCCACGTATACAATCAGTCTAGTTGGACGGAGTCACCTAGTGCAG | 5040 fluorescence intensity (a.u.)
TACACATGTTGCCGATCTCCCAAAGGAAATAGGGAATCTTCGGAGTCACCTAGTGCAG | 3450 fluorescence intensity (a.u.)
TGGCAATTAATATCCTAAGTTGATCACTTAATTAAGCCATCGGAGTCACCTAGTGCAG | 7270 fluorescence intensity (a.u.)
GGTCCGTTCACAGGCTGGTCGGTGGCGTGGACGGCAGGAGCGGAGTCACCTAGTGCAG | 3930 fluorescence intensity (a.u.)
AATCAAACGTATGAATGACTAGCTACGATTTTATACACTTCGGAGTCACCTAGTGCAG | 5060 fluorescence intensity (a.u.)
AATTACCACGTAAGCGTCACGTCAACAACACGTTAGACAACGGAGTCACCTAGTGCAG | 8510 fluorescence intensity (a.u.)
TATTTTGACTTGGATGTTTTGCTTGTGACGCTAGCATTGGCGGAGTCACCTAGTGCAG | 4890 fluorescence intensity (a.u.)
